Laboratory results: PMC5363390
Results are given in words; binding and its absence hold for the method and conditions named. Some results given as binding are weak or reduced against the parent protein; the word gives no strength. Sequences can lack the tags named with a protein.

Target: T1, PACT expressed as a GAL4 DNA-binding domain fusion protein (pGBKT7) (UniProt O75569)
T1 sequence: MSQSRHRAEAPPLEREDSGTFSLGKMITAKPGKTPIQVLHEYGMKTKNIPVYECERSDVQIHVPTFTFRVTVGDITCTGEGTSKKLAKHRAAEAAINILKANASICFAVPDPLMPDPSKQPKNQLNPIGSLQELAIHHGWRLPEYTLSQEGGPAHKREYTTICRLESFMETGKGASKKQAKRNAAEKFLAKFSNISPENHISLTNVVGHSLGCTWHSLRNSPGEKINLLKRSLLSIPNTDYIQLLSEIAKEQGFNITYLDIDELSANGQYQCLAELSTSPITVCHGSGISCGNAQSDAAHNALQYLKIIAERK
Assay: two-hybrid; ADAR1 in pGADT7, PACT in pGBKT7, AH109 yeast; serial dilutions spotted on triple dropout SD medium lacking histidine, tryptophan and leucine, 30°C, 3 days

B1: ADAR1 expressed as a GAL4 DNA-activation domain fusion protein (pGADT7) (protein, UniProt P55265 1-1226)
chain: MNPRQGYSLSGYYTHPFQGYEHRQLRYQQPGPGSSPSSFLLKQIEFLKGQLPEAPVIGKQTPSLPPSLPGLRPRFPVLLASSTRGRQVDIRGVPRGVHLRSQGLQRGFQHPSPRGRSLPQRGVDCLSSHFQELSIYQDQEQRILKFLEELGEGKATTAHDLSGKLGTPKKEINRVLYSLAKKGKLQKEAGTPPLWKIAVSTQAWNQHSGVVRPDGHSQGAPNSDPSLEPEDRNSTSVSEDLLEPFIAVSAQAWNQHSGVVRPDSHSQGSPNSDPGLEPEDSNSTSALEDPLEFLDMAEIKEKICDYLFNVSDSSALNLAKNIGLTKARDINAVLIDMERQGDVYRQGTTPPIWHLTDKKRERMQIKRNTNSVPETAPAAIPETKRNAEFLTCNIPTSNASNNMVTTEKVENGQEPVIKLENRQEARPEPARLKPPVHYNGPSKAGYVDFENGQWATDDIPDDLNSIRAAPGEFRAIMEMPSFYSHGLPRCSPYKKLTECQLKNPISGLLEYAQFASQTCEFNMIEQSGPPHEPRFKFQVVINGREFPPAEAGSKKVAKQDAAMKAMTILLEEAKAKDSGKSEESSHYSTEKESEKTAESQTPTPSATSFFSGKSPVTTLLECMHKLGNSCEFRLLSKEGPAHEPKFQYCVAVGAQTFPSVSAPSKKVAKQMAAEEAMKALHGEATNSMASDNQPEGMISESLDNLESMMPNKVRKIGELVRYLNTNPVGGLLEYARSHGFAAEFKLVDQSGPPHEPKFVYQAKVGGRWFPAVCAHSKKQGKQEAADAALRVLIGENEKAERMGFTEVTPVTGASLRRTMLLLSRSPEAQPKTLPLTGSTFHDQIAMLSHRCFNTLTNSFQPSLLGRKILAAIIMKKDSEDMGVVVSLGTGNRCVKGDSLSLKGETVNDCHAEIISRRGFIRFLYSELMKYNSQTAKDSIFEPAKGGEKLQIKKTVSFHLYISTAPCGDGALFDKSCSDRAMESTESRHYPVFENPKQGKLRTKVENGEGTIPVESSDIVPTWDGIRLGERLRTMSCSDKILRWNVLGLQGALLTHFLQPIYLKSVTLGYLFSQGHLTRAICCRVTRDGSAFEDGLRHPFIVNHPKVGRVSIYDSKRQSGKTKETSVNWCLADGYDLEILDGTRGTVDGPRNELSRVSKKNIFLLFKKLCSFRYRRDLLRLSYGEAKKAARDYETAKNYFKKGLKDMGYGNWISKPQEEKNFYLCPV
B1 was tested, and the binding was “binds”.
